Test results from paper PMC11522691, “Structure of the turnover-ready state of an ancestral respiratory complex I” (Nature Communications, 2024).
Results are given in words; binding and its absence hold for the method and conditions named. Some entries that bind do so weakly or less than the wild type.

How the values were obtained:
Assay in all cases: cryo-EM structure; Pd-CI purified whole from P. denitrificans membranes in DDM (His-Trap, size exclusion), reconstituted into MSP2N2 phospholipid nanodiscs with ubiquinone-10; 2.3 Å consensus map, 2.5 Å focussed map of ND4-ND5; both purified
[1] = molecular target: T1, Pd-ND1 (Nqo8), core subunit of P. denitrificans complex I (Paracoccus denitrificans) (UniProt P29920)
T1 sequence: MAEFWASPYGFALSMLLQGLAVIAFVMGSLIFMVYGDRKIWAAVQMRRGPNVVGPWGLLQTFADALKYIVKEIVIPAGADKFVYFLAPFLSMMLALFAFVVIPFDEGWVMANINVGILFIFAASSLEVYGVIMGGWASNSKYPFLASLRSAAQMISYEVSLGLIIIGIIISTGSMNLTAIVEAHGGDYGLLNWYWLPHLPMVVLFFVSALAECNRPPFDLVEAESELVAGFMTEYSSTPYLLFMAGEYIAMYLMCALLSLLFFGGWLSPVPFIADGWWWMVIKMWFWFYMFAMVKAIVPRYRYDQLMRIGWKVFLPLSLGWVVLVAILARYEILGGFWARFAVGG

[2] = molecular target: T2, Pd-ND3 (Nqo7), core subunit of P. denitrificans complex I (Paracoccus denitrificans) (UniProt P29919)
T2 sequence (chain, formyl-Met at the N-terminus (modelled from additional density)): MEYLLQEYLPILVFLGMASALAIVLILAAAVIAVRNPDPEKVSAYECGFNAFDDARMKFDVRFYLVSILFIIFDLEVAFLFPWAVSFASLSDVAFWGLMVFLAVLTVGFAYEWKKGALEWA

[3] = molecular target: T3, Pd-ND4L (Nqo11), core subunit of P. denitrificans complex I (Paracoccus denitrificans) (UniProt P29923)
T3 sequence: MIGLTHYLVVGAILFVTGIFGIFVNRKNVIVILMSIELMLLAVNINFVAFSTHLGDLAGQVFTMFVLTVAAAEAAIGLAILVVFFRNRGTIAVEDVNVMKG

Measured: binding

B1: Pd-NDUFS2 (Nqo4), core subunit of P. denitrificans complex I (protein, UniProt P29916 1-412)
chain: MDGDIRKNSLDDGSMDALTGEQSIRNFNINFGPQHPAAHGLLRMVLELDGEIVERADPHIGLLHRGTEKLMESRTYLQNLPYLDRLDYVAPMNQEHAWCLAIERLTGTVIPRRASLIRVLYSEIGRILNHLMGVTTGAMDVGALTPPLWGFEAREELMIFYERACGARLHAAYFRPGGVHQDLPPDLLDDIEEWCERFPKLVDDLDTLLTENRIFKQRLVDIGIVTEADALDWGYTGVMVRGSGLAWDLRRSQPYECYDEFDFQIPVGRNGDCYDRYLCRMAEMRESCKIMQQAVQKLRAEPAGDVLARGKLTPPRRAEMKRDMESLIHHFKLYTEGFKVPAGEVYAAVEGPKGEFGVYLVADGTNKPWRAKLRAPGFAHLQSIDWMSRGHMLADVPAIIATLDIVFGEVDR
modifications: dimethyl-arginine at position 65
binds: all assays above
